# Measurements published in the supplement of paper PMC8728848.
# The list shows a part of the results.
# How the values were obtained:
# Assay in all cases: glycan array binding signal (z-score within array); higher = stronger binding
# Conditions in all cases: glycan notation: IUPAC condensed, linker removed
# [1] = target: Neu5Ac(a2-3)GalNAc(b1-4)GlcNAc
# Summary of the method: (§1)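 Glycan array binding is given as a within-array Z-score, which can be read as non-binding when negative. The arrays, 3228 of them, came from the Consortium for Functional Glycomics database and were retained only where the protein sequence was available. Z-scores were averaged across arrays of the same protein sequence at different concentrations or buffers and across linkers.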
# [2] = target: Neu5Ac(a2-3)[GalNAc(b1-4)]Gal(b1-4)Glc
# Summary of the method: as §1
# [3] = target: Neu5Ac(a2-3)[GalNAc(b1-4)]Gal(b1-4)GlcNAc
# Summary of the method: as §1
# [4] = target: Neu5Ac(a2-3)[GalNAc(b1-4)]Gal(b1-4)GlcNAc(b1-3)GalNAc
# Summary of the method: as §1
# [5] = target: Neu5Ac(a2-3)[Neu5Ac(a2-6)]GalNAc
# Summary of the method: as §1
# Neu5Ac(a2-6)Gal = target: Neu5Ac(a2-6)Gal
# Summary of the method: as §1
# [6] = target: Neu5Ac(a2-6)Gal(b1-3)GlcNAc(b1-3)[Gal(b1-4)GlcNAc(b1-6)]Gal(b1-4)Glc
# Summary of the method: as §1
# Neu5Ac(a2-6)Gal(b1-4)Glc = target: Neu5Ac(a2-6)Gal(b1-4)Glc
# Summary of the method: as §1
# [7] = target: Neu5Ac(a2-6)Gal(b1-4)GlcNAc
# Summary of the method: as §1
# [8] = target: Neu5Ac(a2-6)Gal(b1-4)GlcNAc(b1-2)Man
# Summary of the method: as §1
# [9] = target: Neu5Ac(a2-6)Gal(b1-4)GlcNAc(b1-2)Man(a1-3)Man(b1-4)GlcNAc(b1-4)GlcNAc
# Summary of the method: as §1
# [10] = target: Neu5Ac(a2-6)Gal(b1-4)GlcNAc(b1-2)Man(a1-3)[Gal(b1-4)GlcNAc(b1-2)Man(a1-6)]Man(b1-4)GlcNAc(b1-4)GlcNAc
# Summary of the method: as §1
# [11] = target: Neu5Ac(a2-6)Gal(b1-4)GlcNAc(b1-2)Man(a1-3)[GlcNAc(b1-2)Man(a1-6)]Man(b1-4)GlcNAc(b1-4)GlcNAc
# Summary of the method: as §1
# [12] = target: Neu5Ac(a2-6)Gal(b1-4)GlcNAc(b1-2)Man(a1-3)[GlcNAc(b1-4)][Neu5Ac(a2-6)Gal(b1-4)GlcNAc(b1-2)Man(a1-6)]Man(b1-4)GlcNAc(b1-4)GlcNAc
# Summary of the method: as §1
# [13] = target: Neu5Ac(a2-6)Gal(b1-4)GlcNAc(b1-2)Man(a1-3)[Man(a1-6)]Man(b1-4)GlcNAc(b1-4)GlcNAc
# Summary of the method: as §1
# [14] = target: Neu5Ac(a2-6)Gal(b1-4)GlcNAc(b1-2)Man(a1-3)[Neu5Ac(a2-3)Gal(b1-4)GlcNAc(b1-2)Man(a1-6)]Man(b1-4)GlcNAc(b1-4)GlcNAc
# Summary of the method: as §1
# [15] = target: Neu5Ac(a2-6)Gal(b1-4)GlcNAc(b1-2)Man(a1-3)[Neu5Ac(a2-6)Gal(b1-4)GlcNAc(b1-2)Man(a1-6)]Man(b1-4)GlcNAc(b1-4)GlcNAc
# Summary of the method: as §1
# [16] = target: Neu5Ac(a2-6)Gal(b1-4)GlcNAc(b1-2)Man(a1-3)[Neu5Ac(a2-6)Gal(b1-4)GlcNAc(b1-2)Man(a1-6)]Man(b1-4)GlcNAc(b1-4)[Fuc(a1-6)]GlcNAc
# Summary of the method: as §1
# [17] = target: Neu5Ac(a2-6)Gal(b1-4)GlcNAc(b1-2)Man(a1-6)Man(b1-4)GlcNAc(b1-4)GlcNAc
# Summary of the method: as §1
# [18] = target: Neu5Ac(a2-6)Gal(b1-4)GlcNAc(b1-2)Man(a1-6)[Gal(b1-4)GlcNAc(b1-2)Man(a1-3)]Man(b1-4)GlcNAc(b1-4)GlcNAc
# Summary of the method: as §1
# [19] = target: Neu5Ac(a2-6)Gal(b1-4)GlcNAc(b1-2)Man(a1-6)[GlcNAc(b1-2)Man(a1-3)]Man(b1-4)GlcNAc(b1-4)GlcNAc
# Summary of the method: as §1
# [20] = target: Neu5Ac(a2-6)Gal(b1-4)GlcNAc(b1-2)Man(a1-6)[Man(a1-3)]Man(b1-4)GlcNAc(b1-4)GlcNAc
# Summary of the method: as §1
# [21] = target: Neu5Ac(a2-6)Gal(b1-4)GlcNAc(b1-2)[Neu5Ac(a2-6)Gal(b1-4)GlcNAc(b1-4)]Man(a1-3)[GlcNAc(b1-4)][Neu5Ac(a2-6)Gal(b1-4)GlcNAc(b1-2)[Neu5Ac(a2-6)Gal(b1-4)GlcNAc(b1-6)]Man(a1-6)]Man(b1-4)GlcNAc(b1-4)GlcNAc
# Summary of the method: as §1
# [22] = target: Neu5Ac(a2-6)Gal(b1-4)GlcNAc(b1-2)[Neu5Ac(a2-6)Gal(b1-4)GlcNAc(b1-4)]Man(a1-3)[GlcNAc(b1-4)][Neu5Ac(a2-6)Gal(b1-4)GlcNAc(b1-4)Man(a1-6)]Man(b1-4)GlcNAc(b1-4)GlcNAc
# Summary of the method: as §1
# [23] = target: Neu5Ac(a2-6)Gal(b1-4)GlcNAc(b1-2)[Neu5Ac(a2-6)Gal(b1-4)GlcNAc(b1-6)]Man(a1-6)[Neu5Ac(a2-6)Gal(b1-4)GlcNAc(b1-2)Man(a1-3)][GlcNAc(b1-4)]Man(b1-4)GlcNAc(b1-4)GlcNAc
# Summary of the method: as §1
# [24] = target: Neu5Ac(a2-6)Gal(b1-4)GlcNAc(b1-3)Gal(b1-3)GlcNAc
# Summary of the method: as §1
# [25] = target: Neu5Ac(a2-6)Gal(b1-4)GlcNAc(b1-3)Gal(b1-4)GlcNAc
# Summary of the method: as §1
# [26] = target: Neu5Ac(a2-6)Gal(b1-4)GlcNAc(b1-3)Gal(b1-4)GlcNAc(b1-2)Man(a1-3)[Neu5Ac(a2-6)Gal(b1-4)GlcNAc(b1-3)Gal(b1-4)GlcNAc(b1-2)Man(a1-6)]GalNAc
# Summary of the method: as §1
# [27] = target: Neu5Ac(a2-6)Gal(b1-4)GlcNAc(b1-3)Gal(b1-4)GlcNAc(b1-3)Gal(b1-4)GlcNAc
# Summary of the method: as §1
# [28] = target: Neu5Ac(a2-6)Gal(b1-4)GlcNAc(b1-3)Gal(b1-4)GlcNAc(b1-3)Gal(b1-4)GlcNAc(b1-2)Man(a1-3)[Neu5Ac(a2-6)Gal(b1-4)GlcNAc(b1-3)Gal(b1-4)GlcNAc(b1-3)Gal(b1-4)GlcNAc(b1-2)Man(a1-6)]GalNAc
# Summary of the method: as §1
# [29] = target: Neu5Ac(a2-6)Gal(b1-4)GlcNAc(b1-3)Gal(b1-4)GlcNAc(b1-3)GalNAc
# Summary of the method: as §1
# [30] = target: Neu5Ac(a2-6)Gal(b1-4)GlcNAc(b1-3)Gal(b1-4)GlcNAc(b1-3)[Neu5Ac(a2-6)Gal(b1-4)GlcNAc(b1-3)Gal(b1-4)GlcNAc(b1-6)]GalNAc
# Summary of the method: as §1
# [31] = target: Neu5Ac(a2-6)Gal(b1-4)GlcNAc(b1-3)Gal(b1-4)GlcNAc(b1-6)[Gal(b1-3)]GalNAc
# Summary of the method: as §1
# [32] = target: Neu5Ac(a2-6)Gal(b1-4)GlcNAc(b1-3)Gal(b1-4)[Fuc(a1-3)]GlcNAc(b1-3)Gal(b1-4)[Fuc(a1-3)]GlcNAc
# Summary of the method: as §1
# [33] = target: Neu5Ac(a2-6)Gal(b1-4)GlcNAc(b1-3)GalNAc
# Summary of the method: as §1
# [34] = target: Neu5Ac(a2-6)Gal(b1-4)GlcNAc(b1-3)[Neu5Ac(a2-6)Gal(b1-4)GlcNAc(b1-6)]GalNAc
# Summary of the method: as §1
# [35] = target: Neu5Ac(a2-6)Gal(b1-4)GlcNAc(b1-6)GalNAc
# Summary of the method: as §1
binder,measurement,setting,value
Pbx2CASH domain (Cryptococcus neoformans) (protein) GIPGPNRLYRLSGPIIFTAADQEIATYGYPTGSERAVLRVEGRNTATAIQGDCRRCARVSVKNLVVDGNRKKLGRMRDFQLATGLVVLGGNEGQSIQNSWIKNPRGFTAIHIREGDKLQCSGARVEKNEIGPVGEEYDPEKDGDDPEMSPLGRPLADGVSIACRDSFIRDNTFRDNTDAAIVVYCSPGTLIHA,glycan array binding signal (z-score),[1],-0.652
same,glycan array binding signal (z-score),[2],-0.95
same,glycan array binding signal (z-score),[3],-0.697
same,glycan array binding signal (z-score),[4],0.539
same,glycan array binding signal (z-score),[5],-0.566
same,glycan array binding signal (z-score),Neu5Ac(a2-6)Gal,-0.221
same,glycan array binding signal (z-score),[6],-0.432
same,glycan array binding signal (z-score),Neu5Ac(a2-6)Gal(b1-4)Glc,-0.289
same,glycan array binding signal (z-score),[7],-0.326
same,glycan array binding signal (z-score),[8],-0.377
same,glycan array binding signal (z-score),[9],0.2
same,glycan array binding signal (z-score),[10],-0.26
same,glycan array binding signal (z-score),[11],0.584
same,glycan array binding signal (z-score),[12],0.933
same,glycan array binding signal (z-score),[13],0.568
same,glycan array binding signal (z-score),[14],-0.593
same,glycan array binding signal (z-score),[15],-0.301
same,glycan array binding signal (z-score),[16],-0.266
same,glycan array binding signal (z-score),[17],1.6
same,glycan array binding signal (z-score),[18],0.273
same,glycan array binding signal (z-score),[19],-0.378
same,glycan array binding signal (z-score),[20],2.48
same,glycan array binding signal (z-score),[21],0.209
same,glycan array binding signal (z-score),[22],0.435
same,glycan array binding signal (z-score),[23],1.59
same,glycan array binding signal (z-score),[24],-0.059
same,glycan array binding signal (z-score),[25],-0.419
same,glycan array binding signal (z-score),[26],0.75
same,glycan array binding signal (z-score),[27],-0.618
same,glycan array binding signal (z-score),[28],4.62
same,glycan array binding signal (z-score),[29],0.35
same,glycan array binding signal (z-score),[30],0.226
same,glycan array binding signal (z-score),[31],1.68
same,glycan array binding signal (z-score),[32],-0.252
same,glycan array binding signal (z-score),[33],-0.102
same,glycan array binding signal (z-score),[34],0.544
same,glycan array binding signal (z-score),[35],1.05

# 3 entries drawn at random from those above, as already listed:
binder,measurement,setting,value
Pbx2CASH domain (Cryptococcus neoformans) (protein) GIPGPNRLYRLSGPIIFTAADQEIATYGYPTGSERAVLRVEGRNTATAIQGDCRRCARVSVKNLVVDGNRKKLGRMRDFQLATGLVVLGGNEGQSIQNSWIKNPRGFTAIHIREGDKLQCSGARVEKNEIGPVGEEYDPEKDGDDPEMSPLGRPLADGVSIACRDSFIRDNTFRDNTDAAIVVYCSPGTLIHA,glycan array binding signal (z-score),[3],-0.697
same,glycan array binding signal (z-score),[32],-0.252
same,glycan array binding signal (z-score),[8],-0.377
